Laboratory results as given in patent US4749687A (Pfizer Inc., priority 1985, dated 1988).

Assay: general procedure: solution-phase peptide synthesis; 1-cyclohexyl-3-(2-morpholinoethyl)carbodiimide metho-p-toluene sulfonate / N-hyd

| Substance | step yield (late stage modification step) | step yield (coupling step) |
| --- | --- | --- |
| PEPTIDE1{[Boc].F.H.[Sta].[IleCH2NHPhe]}$$$$V2.0 | 84% |  |
| [N-(t-butyloxycarbonyl)-Phe]-N-methyl-His-Sta-Ile-Phe-benzyl ester |  | 57% |
| Histidine-Benzyloxycarbonylaminostatine-Isoleucine -Phenylalanine Benzyl Ester Hydrochloride | 86% |  |
| [N-im-(t-butyloxycarbonyl)-N-methyl Histidine]-Sta Ile-Phe-benzyl ester |  | 62% |
| PEPTIDE1{[Boc].F.H.[Sta].A.[Sta].E}$$$$V2.0 | 72% |  |

Strings that start with PEPTIDE1 are HELM notation: dots part the residues, brackets hold end groups and non-standard residues.
